Our source for the binding values is publication PMC7418333.

Test [1] addresses T1, STAG2 (mouse (endogenous in mESCs v6.5)) (UniProt O35638).
T1 sequence: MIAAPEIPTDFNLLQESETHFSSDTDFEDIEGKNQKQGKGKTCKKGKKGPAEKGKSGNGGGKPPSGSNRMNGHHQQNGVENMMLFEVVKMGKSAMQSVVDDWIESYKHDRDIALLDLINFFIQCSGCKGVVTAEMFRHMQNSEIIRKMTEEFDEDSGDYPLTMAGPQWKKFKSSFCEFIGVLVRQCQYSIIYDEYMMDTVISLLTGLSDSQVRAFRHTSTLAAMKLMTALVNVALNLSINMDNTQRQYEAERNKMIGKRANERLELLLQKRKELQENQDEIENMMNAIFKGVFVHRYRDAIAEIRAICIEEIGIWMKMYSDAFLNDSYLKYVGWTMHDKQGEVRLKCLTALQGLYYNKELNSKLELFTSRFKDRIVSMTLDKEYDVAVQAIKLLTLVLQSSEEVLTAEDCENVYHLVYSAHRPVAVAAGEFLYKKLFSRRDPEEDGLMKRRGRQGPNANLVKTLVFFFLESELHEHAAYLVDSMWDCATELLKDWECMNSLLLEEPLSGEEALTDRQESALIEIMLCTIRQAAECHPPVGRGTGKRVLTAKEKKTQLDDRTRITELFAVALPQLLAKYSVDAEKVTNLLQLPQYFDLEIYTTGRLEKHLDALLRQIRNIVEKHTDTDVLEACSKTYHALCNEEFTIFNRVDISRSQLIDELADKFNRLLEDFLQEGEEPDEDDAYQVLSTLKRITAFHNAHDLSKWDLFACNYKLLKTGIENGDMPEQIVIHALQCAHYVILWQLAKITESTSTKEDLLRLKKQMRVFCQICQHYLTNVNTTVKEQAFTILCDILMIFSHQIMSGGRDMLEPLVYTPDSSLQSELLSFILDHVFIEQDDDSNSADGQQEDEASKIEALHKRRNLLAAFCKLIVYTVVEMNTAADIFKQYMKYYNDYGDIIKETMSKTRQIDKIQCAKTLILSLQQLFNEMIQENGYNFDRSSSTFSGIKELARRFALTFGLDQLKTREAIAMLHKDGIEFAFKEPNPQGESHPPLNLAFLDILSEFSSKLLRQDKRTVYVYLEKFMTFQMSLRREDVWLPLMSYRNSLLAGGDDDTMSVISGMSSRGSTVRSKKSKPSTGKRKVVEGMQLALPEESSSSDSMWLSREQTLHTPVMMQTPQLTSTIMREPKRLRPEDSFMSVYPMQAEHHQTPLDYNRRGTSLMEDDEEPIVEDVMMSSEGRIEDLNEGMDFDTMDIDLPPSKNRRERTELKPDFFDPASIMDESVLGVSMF
Description: co-IP; endogenous proteins from mESC nuclear lysates, native conditions, nuclei digested with 10U Benzonase at 37 C for 15 min, 400 ug protein per IP, low stringency buffer, Protein G Dynabeads; western blot.

Test [2] deals with T2, STAG1 (mouse (endogenous in mESCs v6.5)) (UniProt Q9D3E6).
T2 sequence: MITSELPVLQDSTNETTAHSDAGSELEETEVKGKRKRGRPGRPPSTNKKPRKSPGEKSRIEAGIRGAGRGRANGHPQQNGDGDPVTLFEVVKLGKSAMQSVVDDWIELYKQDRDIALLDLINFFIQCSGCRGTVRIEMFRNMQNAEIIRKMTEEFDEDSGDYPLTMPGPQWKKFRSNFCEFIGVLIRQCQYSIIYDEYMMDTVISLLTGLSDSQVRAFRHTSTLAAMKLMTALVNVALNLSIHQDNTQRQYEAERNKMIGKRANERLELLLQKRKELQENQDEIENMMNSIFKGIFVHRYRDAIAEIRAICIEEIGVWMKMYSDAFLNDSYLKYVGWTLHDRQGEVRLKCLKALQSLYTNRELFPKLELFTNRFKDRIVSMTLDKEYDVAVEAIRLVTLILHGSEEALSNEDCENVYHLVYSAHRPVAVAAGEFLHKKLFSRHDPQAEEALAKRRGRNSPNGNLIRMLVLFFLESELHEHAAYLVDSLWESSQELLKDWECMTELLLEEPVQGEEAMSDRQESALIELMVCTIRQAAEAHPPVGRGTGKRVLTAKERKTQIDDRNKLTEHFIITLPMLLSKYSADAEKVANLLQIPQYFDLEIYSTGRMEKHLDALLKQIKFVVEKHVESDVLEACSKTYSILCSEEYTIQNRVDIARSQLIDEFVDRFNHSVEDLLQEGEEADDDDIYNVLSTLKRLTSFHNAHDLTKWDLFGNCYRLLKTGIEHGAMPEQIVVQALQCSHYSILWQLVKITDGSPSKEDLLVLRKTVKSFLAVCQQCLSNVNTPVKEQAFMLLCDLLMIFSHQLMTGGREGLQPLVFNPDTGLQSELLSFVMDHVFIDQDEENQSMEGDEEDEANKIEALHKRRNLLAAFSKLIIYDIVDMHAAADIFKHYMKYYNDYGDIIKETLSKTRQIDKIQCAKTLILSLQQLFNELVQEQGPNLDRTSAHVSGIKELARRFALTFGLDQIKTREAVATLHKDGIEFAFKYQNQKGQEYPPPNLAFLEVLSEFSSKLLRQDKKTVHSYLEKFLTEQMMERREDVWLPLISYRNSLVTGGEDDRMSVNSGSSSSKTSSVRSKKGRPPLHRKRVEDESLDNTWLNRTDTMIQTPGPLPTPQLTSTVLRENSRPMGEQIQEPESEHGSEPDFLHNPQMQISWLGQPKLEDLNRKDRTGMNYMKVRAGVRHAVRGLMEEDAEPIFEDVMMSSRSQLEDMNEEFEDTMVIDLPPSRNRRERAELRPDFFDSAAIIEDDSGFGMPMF
Described as above.

No constants are given. Whether binding was seen depends on the method and setting. Binding seen in cells or lysates may run through a third protein. Some entries that bind do so weakly or less than the wild type. Where a sequence is shown, tags or fusion partners need not be part of it.

B1: STAG1 (protein, UniProt Q9D3E6 1-1258)
chain: T2 sequence
Consider B1, for which, in test [1], the binding result is reported as “no binding”.

B2: SMC1A (protein, UniProt Q9CU62 1-1233)
chain: MGFLKLIEIENFKSYKGRQIIGPFQRFTAIIGPNGSGKSNLMDAISFVLGEKTSNLRVKTLRDLIHGAPVGKPAANRAFVSMVYSEEGAEDRTFARVIVGGSSEYKINNKVVQLHEYSEELEKLGILIKARNFLVFQGAVESIAMKNPKERTALFEEISRSGELAQEYDKRKKEMVKAEEDTQFNYHRKKNIAAERKEAKQEKEEADRYQRLKDEVVRAQVQLQLFKLYHNEVEIEKLNKELASKNKEIEKDKKRMDKVEDELKEKKKELGKMMREQQQIEKEIKEKDSELNQKRPQYIKAKENTSHKIKKLEAAKKSLQNAQKHYKKRKGDMDELEKEMLSVEKARQEFEERMEEESQSQGRDLTLEENQVKKYHRLKEEASKRAATLAQELEKFNRDQKADQDRLDLEERKKVETEAKIKQKLREIEENQKRIEKLEEYITTSKQSLEEQKKLEGELTEEVEMAKRRIDEINKELNQVMEQLGDARIDRQESSRQQRKAEIMESIKRLYPGSVYGRLIDLCQPTQKKYQIAVTKVLGKNMDAIIVDSEKTGRDCIQYIKEQRGEPETFLPLDYLEVKPTDEKLRELKGAKLVIDVIRYEPPHIKKALQYACGNALVCDNVEDARRIAFGGHQRHKTVALDGTLFQKSGVISGGASDLKAKARRWDEKAVDKLKEKKERLTEELKEQMKAKRKEAELRQVQSQAHGLQMRLKYSQSDLEQTKTRHLALNLQEKSKLESELANFGPRINDIKRIIQSREREMKDLKEKMNQVEDEVFEEFCREIGVRNIREFEEEKVKRQNEIAKKRLEFENQKTRLGIQLDFEKNQLKEDQDKVHMWEQTVKKDENEIEKLKKEEQRHMKIIDETMAQLQDLKNQHLAKKSEVNDKNHEMEEIRKKLGGANKEMTHLQKEVTAIETKLEQKRSDRHNLLQACKMQDIKLPLSKGTMDDISQEEGSSQGEESVSGSQRTSSIYAREALIEIDYGDLCEDLKDAQAEEEIKQEMNTLQQKLNEQQSVLQRIAAPNMKAMEKLESVRDKFQETSDEFEAARKRAKKAKQAFEQIKKERFDRFNACFESVATNIDEIYKALSRNSSAQAFLGPENPEEPYLDGINYNCVAPGKRFRPMDNLSGGEKTVAALALLFAIHSYKPAPFFVLDEIDAALDNTNIGKVANYIKEQSTCNFQAIVISLKEEFYTKAESLIGVYPEQGDCVISKVLTFDLTKYPDANPNPNEQ
As for B2, the binding result in test [2] and in test [1] was “binds” throughout.

B3: STAG2 (protein, UniProt O35638 1-1231)
chain: T1 sequence
Take B3: the binding entry in test [2] was “no binding”.
